Experimental data from PubChem BioAssay AID1347076 (National Center for Advancing Translational Sciences (NCATS), 2019).
The whole screen tested about 400,000 compounds, of which about 13,000 (3.2%) were called active. Inconclusive means that the source gave no clear call. Such entries were picked first, then a sample of the others. Calls follow the shape of the dose curve; as a rule, active = well fitted cell-killing curve with a large enough effect; inconclusive = small, poorly fitted or top-dose-only effect, or effect the other way; inactive = flat fitted curve, though single readings scatter. Where the call is inconclusive, the potency comes from a doubtful curve fit.

assay: qHTS assay for MDR1-selective chemotherapeutics: Primary screen using the drug-selected MDR subline cells KB-V1; details: KB-V1 MDR cells viability, CellTiter-Glo, 72 h; activity change, negative = cytotoxicity: at 46.1 µM (top of the series); also: nearly all actives have a fitted effect of over 60% in size
How it was run: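 Luminescent ATP read-out (CellTiter-Glo, 10 min) measures survival of drug-selected KB-V1 MDR cells after 72 h, 37 degrees C compound exposure. Medium: phenol-red-free DMEM, 10% FBS. Values from fitted concentration-response curves.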
% is scaled to controls: 0 for no effect and ±100 for the full control effect; potency is read from the fitted curve at half-maximal effect.

| SMILES | Potency | activity change, negative = cytotoxicity |
| --- | --- | --- |
| CCN(c1ccccc1)S(=O)(=O)c1ccc(C(=O)Nc2ccccn2)cc1 | inconclusive: 20.6 µM [cytotoxic, single point] | – |
| CCCCSC(=S)N(C)C1CCS(=O)(=O)C1 (stereo not given) | inconclusive: 23.1 µM [cytotoxic, single point] | – |
| C[C@H]1C=C(C(=O)N2CCOCC2)O[C@@H](OCc2ccc(CO)cc2)C1 | inconclusive: 16.4 µM [cytotoxic, single point] | – |
| O=C1C=C(Nc2ccccc2)CC(c2ccccc2)C1 (stereo not given) | inconclusive: 16.4 µM [cytotoxic, partial curve, poor fit] | – |
| O=C(/C=C1\NC2(CCCC2)Cc2ccccc21)C(=O)N/N=C/c1ccccc1O | inconclusive: 2.06 µM [cytotoxic, full curve] | – |
| C=CCn1c(SCC(=O)Nc2sccc2C(N)=O)nc2sc(C)c(C)c2c1=O | inconclusive: 23.1 µM [cytotoxic, partial curve, poor fit] | – |
| COC(=O)c1sccc1S(=O)(=O)Nc1ccc(C)cc1 | – | inactive: -17% |
| COC(=O)C1Cc2c([nH]c3ccccc23)C2(CCN(Cc3ccccc3)CC2)N1 (stereo not given) | inconclusive: 13 µM [cytotoxic, partial curve] | – |
| Cc1ccc(C(=O)N2CCN(Cc3ccc4c(c3)OCO4)CC2)cc1[N+](=O)[O-] | inconclusive: 20.6 µM [cytotoxic, single point] | – |
| COC(=O)CSc1ncccc1-c1nc2ccccc2[nH]1 | inconclusive: 18.4 µM [cytotoxic, single point] | – |
| COc1ccc(Cl)cc1NC(=O)c1cc2ccc3ccc(C)[nH]c3c2n1 | inconclusive: 29.1 µM [cytotoxic, single point] | – |
| NC(=O)C1(N2CCCCC2)CCN(Cc2ccc(Br)cc2)CC1 | inconclusive: 3.66 µM [cytotoxic, partial curve] | – |
| Cc1ccc(S(=O)(=O)N2C[C@H]3[C@H]4C(=O)N(c5ccccc5)C(=O)[C@H]4C[C@H](OC(=O)NC4CCCC4)[C@@]3(O)C2)cc1 | – | inactive: -3.05% |
| Cc1ccc(CNC(=O)COC(=O)Cc2ccc(-c3ccccc3)cc2)cc1 | inconclusive: 29.1 µM [cytotoxic, single point] | – |
| Cc1ccc(NS(=O)(=O)c2ccc(NC(=O)c3ccc(Br)o3)cc2)c(C)c1 | active: 18.4 µM | – |
| Cc1sc2nc(CN3CCCCC3)nc(Cl)c2c1C | – | inactive: -5.93% |
| O=C(O)c1ccc(N/N=C/c2ccc(OC(=O)c3cccc(Cl)c3)cc2)cc1 | – | inactive: 4.74% |
| CC(C)CC(NC(=O)c1ccc(Cl)cc1)C(=O)OCc1cc([N+](=O)[O-])cc2c1OCOC2 (stereo not given) | inconclusive: 0.517 µM [cytotoxic, full curve, poor fit] | – |
| C[C@H](Cc1ccc(O)c(O)c1)[C@@H](C)Cc1ccc(O)c(O)c1 | – | inactive: 0% |
| CCc1ccc(NC(=O)CSc2c(C)cnc3c2c(=O)n(C)c(=O)n3C)cc1 | – | inactive: -2% |
| C#CC(C)(CC)NC(=O)c1cc2c(n(-c3ccc(Cl)cc3)c1=O)CC(C)(C)CC2=O (stereo not given) | inconclusive: 5.8 µM [cytotoxic, full curve] | – |
| COc1ccccc1-c1cc(NC=O)c2ncc(-c3cccc(C(F)(F)F)c3)n2c1 | inconclusive: 32.6 µM [cytotoxic, partial curve, poor fit] | – |
| O=S1(=O)CCC(NC2CCCC2)C1 (stereo not given) | inconclusive: 16.4 µM [rising, single point] | – |

Taken from above.
CCN(c1ccccc1)S(=O)(=O)c1ccc(C(=O)Nc2ccccn2)cc1 | Potency: inconclusive: 20.6 µM [cytotoxic, single point]
C#CC(C)(CC)NC(=O)c1cc2c(n(-c3ccc(Cl)cc3)c1=O)CC(C)(C)CC2=O (stereo not given) | Potency: inconclusive: 5.8 µM [cytotoxic, full curve]

(cont.)

| SMILES | Potency | activity change, negative = cytotoxicity |
| --- | --- | --- |
| O=C(NC1CCCCC1)C1CCN(S(=O)(=O)N2CCCCCC2)CC1 | active: 16.4 µM | – |
| Cc1ccc(/C=C/C(=O)N2CCCC(C)C2)cc1 (stereo not given) | active: 16.4 µM | – |
| O=C(C1CCC1)N1CCCc2cc(S(=O)(=O)Nc3ccc(F)cc3)ccc21 | inconclusive: 2.91 µM [cytotoxic, partial curve, poor fit] | – |
| CC1(C)Cc2c(sc(NC(=S)NC(=O)c3ccccc3)c2C(=O)O)CO1 | inconclusive: 14.6 µM [cytotoxic, single point] | – |
| Cc1onc(-c2ccccc2)c1-c1nnc(-c2ccccc2C(F)(F)F)o1 | – | inactive: -5.19% |
| COc1ccccc1N(CC(=O)Nc1ccc(C)c(Cl)c1)S(=O)(=O)c1ccc(C)cc1 | – | inactive: -4.13% |
| O=C1CC(c2ccccc2)CC(O)=C1C=NCCN1CCNCC1 (stereo not given) | – | inactive: 2.23% |
| CC(=O)N1c2ccccc2C(=O)C1N1CCN(c2cccc(C(F)(F)F)c2)CC1 (stereo not given) | inconclusive: 29.1 µM [cytotoxic, single point] | – |
| CNC(=S)/N=C/NOCc1ccc(Cl)cc1Cl | inconclusive: 29.1 µM [cytotoxic, single point] | – |
| O=c1[nH]c2ccccc2n1CCCSc1cnc2ccccc2n1 | inconclusive: 16.4 µM [cytotoxic, single point] | – |
| CS(=O)(=O)c1ccc(C(=O)N(CCc2ccccc2)Cc2ccccc2)cc1 | inconclusive: 32.6 µM [cytotoxic, single point] | – |
| CC(=O)N1Cc2ccccc2C(C)CC12CCCCC2 (stereo not given) | active: 16.4 µM | – |
| COCCn1c(C)cc(O)c(C(c2ccc(C)cc2)N2CCCCC2)c1=O (stereo not given) | – | inactive: 3.85% |
| O=C(c1cc([N+](=O)[O-])ccc1N1CCCC1)N1CCCCC1 | – | inactive: -29% |
| Cc1ccc(OCC(=O)NNC(=O)c2cc3ccccc3o2)cc1 | inconclusive: 11.6 µM [rising, partial curve, poor fit] | – |
| O=C(Nc1nc(-c2ccc(Cl)cc2)cs1)NC1CCCCC1 | active: 13 µM | – |
| CNC(=O)c1cc2ncc(C(F)(F)F)cc2s1 | inconclusive: 29.1 µM [rising, single point] | – |
| Cc1cccc(CNC(=O)CCCN2C(=O)CCn3nc(-c4cn(C)c5ccccc45)cc32)c1 | – | inactive: -20.2% |
| O=C(NC1CCCC1)c1nc(-c2c(F)cccc2F)oc1-c1ccccc1 | inconclusive: 7.31 µM [cytotoxic, partial curve] | – |
| CC(=O)NCCn1c(SCC(=O)c2ccccc2)nc2ccccc2c1=O | inconclusive: 16.4 µM [cytotoxic, partial curve, poor fit] | – |
| CCc1c(C)nc(SCC(=O)c2cccs2)c(C#N)c1C | inconclusive: 9.2 µM [cytotoxic, partial curve, poor fit] | – |
| CCN1CCN(c2c(S(=O)(=O)c3ccccc3)cnc3ccc(Cl)cc23)CC1 | inconclusive: 0.0073 µM [cytotoxic, full curve, poor fit] | – |
